Source: publication PMC11727237
No constants are given. Whether binding was seen depends on the method and setting. Binding seen in cells or lysates may run through a third protein. Some binding calls cover weakened binding; strength is not graded here. Sequences can lack the tags named with a protein.

Molecular target: Flag-STING, Q86WV6
Assay: co-IP; 293T cells transfected with Flag-STING and Myc-TBK1 for 24 h, then DMSO, 5 µM cGAMP, or 10 µM Ginkgetin with 5 µM cGAMP for 2 h; lysate incubated with anti-Myc beads or anti-Flag beads for 2 h at RT; washed three times (PBS salts, 0.5% Tween20); western blot with anti-Myc and anti-Flag
Conditions: remark: other sources report otherwise

binding: binds
B1: Myc-TBK1, Q9UHD2 1-729 (protein)
chain: MQSTSNHLWLLSDILGQGATANVFRGRHKKTGDLFAIKVFNNISFLRPVDVQMREFEVLKKLNHKNIVKLFAIEEETTTRHKVLIMEFCPCGSLYTVLEEPSNAYGLPESEFLIVLRDVVGGMNHLRENGIVHRDIKPGNIMRVIGEDGQSVYKLTDFGAARELEDDEQFVSLYGTEEYLHPDMYERAVLRKDHQKKYGATVDLWSIGVTFYHAATGSLPFRPFEGPRRNKEVMYKIITGKPSGAISGVQKAENGPIDWSGDMPVSCSLSRGLQVLLTPVLANILEADQEKCWGFDQFFAETSDILHRMVIHVFSLQQMTAHKIYIHSYNTATIFHELVYKQTKIISSNQELIYEGRRLVLEPGRLAQHFPKTTEENPIFVVSREPLNTIGLIYEKISLPKVHPRYDLDGDASMAKAITGVVCYACRIASTLLLYQELMRKGIRWLIELIKDDYNETVHKKTEVVITLDFCIRNIEKTVKVYEKLMKINLEAAELGEISDIHTKLLRLSSSQGTIETSLQDIDSRLSPGGSLADAWAHQEGTHPKDRNVEKLQVLLNCMTEIYYQFKKDKAERRLAYNEEQIHKFDKQKLYYHATKAMTHFTDECVKKYEAFLNKSEEWIRKMLHLRKQLLSLTNQCFDIEEEVSKYQEYTNELQETLPQKMFTASSGIKHTMTPIYPSSNTLVEMTLGMKKLKEEMEGVVKELAENNHILERFGSLTMDGGLRNVDCL
